# The list shows only some results of the screen, not a fair sample: it gathers tests that were run many times, whatever their T/C, doses with no T/C, and many T/C values between a quarter and a half above the control. Other doses and runs of a compound stand elsewhere. T/C gives the treated animals as a percentage of the vehicle group. Some entries give survivors of the animals treated and no T/C: the source holds a T/C of zero for them, seemingly a mark for toxic or unscored doses. Some doses without a T/C left all or most animals alive at the check, yet need not have been tolerated: the source hardly ever lists a survival T/C far under the control, and the zero likely stands for such cases as well. Survivors were counted at the toxicity check, usually on the fifth day, unless a day is given; later deaths do not show. Schedule codes are those of the source, read here as Q, the interval in days (D) or hours (H), X, the number of doses. Some doses were run more than once; the values are given in rising order. For survival time, this PubChem deposit counts one and a half times the control or more as active, and values a quarter to a half above the control carry no call in these data; other NCI protocols may use other cut-offs. Some T/C values are followed by the survivors on the day toxicity was checked, most often the fifth; where none is given, no animal had died by that day.
# System: BDF1 mice, P388 leukemia ip, median survival T/C
# Test: NCI In Vivo Anticancer Drug Screen. Data for tumor model P388 Leukemia (intraperitoneal) in B6D2F1 (BDF1) mice
# Details: T/C endpoint: median survival time, higher T/C = longer survival
# Method in brief: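 In tumour-bearing mice, survival after compound treatment is set against the vehicle group and given as a quotient.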
# [1] = dose: 200.0 mg/kg/injection, schedule: Q04DX003 (ip), vehicle: water
# [2] = dose: 100.0 mg/kg/injection, schedule: Q01DX009 (ip), vehicle: saline with Tween-80
# [3] = dose: 200.0 mg/kg/injection, schedule: Q01DX009 (ip), vehicle: saline with Tween-80
# [4] = dose: 60.0 mg/kg/injection, schedule: Q04DX003 (ip), vehicle: saline
# [5] = dose: 100.0 mg/kg/injection, schedule: Q01DX009 (ip), vehicle: saline
# [6] = dose: 200.0 mg/kg/injection, schedule: Q01DX009 (ip), vehicle: saline
# [7] = dose: 25.0 mg/kg/injection, schedule: Q01DX009 (ip), vehicle: saline with Tween-80
# [8] = dose: 50.0 mg/kg/injection, schedule: Q01DX009 (ip), vehicle: saline with Tween-80
# [9] = dose: 400.0 mg/kg/injection, schedule: Q01DX009 (ip), vehicle: saline with Tween-80
# [10] = dose: 50.0 mg/kg/injection, schedule: Q01DX009 (ip), vehicle: saline
# [11] = dose: 400.0 mg/kg/injection, schedule: Q01DX001 (ip), vehicle: saline with Tween-80
# [12] = dose: 12.5 mg/kg/injection, schedule: Q01DX009 (ip), vehicle: saline with Tween-80
# [13] = dose: 335.0 mg/kg/injection, schedule: Q01DX009 (ip), vehicle: Klucel (hydroxypropylcellulose) (HPC)
# [14] = dose: 100.0 mg/kg/injection, schedule: Q01DX009 (ip), vehicle: Klucel (hydroxypropylcellulose) (HPC)
compound,measurement,setting,value
COc1cc2c(cc1OC)C(OC)N(C)c1c-2ccc2cc(OC)c(OC)cc12 (stereo not given),T/C,"dose: 50.0 mg/kg/injection, schedule: Q04DX003 (ip), vehicle: water",134 % of control
same,T/C,"dose: 100.0 mg/kg/injection, schedule: Q04DX003 (ip), vehicle: water",148 % of control [5 of 6 alive]
same,T/C,[1],142 % of control [5 of 6 alive]
CN1CCC(C(O)c2ccccc2)CC1 (stereo not given),survivor count,"dose: 400.0 mg/kg/injection, schedule: Q01DX001 (ip), vehicle: Klucel (hydroxypropylcellulose) (HPC)",1 of 6
COC1=C(N)C(=O)c2nc(-c3nc(C(=O)O)c(C)cc3N)ccc2C1=O,T/C,"dose: 0.02 mg/kg/injection, schedule: Q01DX009 (ip), vehicle: saline",132 % of control
same,T/C,"dose: 0.05 mg/kg/injection, schedule: Q01DX009 (ip), vehicle: saline",145 % of control
same,T/C,"dose: 0.1 mg/kg/injection, schedule: Q01DX009 (ip), vehicle: saline",125 % of control
CSc1ncc2cnccn12,survivor count,"dose: 100.0 mg/kg/injection, schedule: Q01DX009 (ip), vehicle: water",1 of 6
same,survivor count,[1],0 of 6
CCN(CC)CCOc1ccc(C2=C(c3ccccc3)CCc3cc(OC)ccc32)cc1,survivor count,[2],4 of 6
same,survivor count,[3],2 of 6
COC(=O)[CH](C[N+](=O)[O-])[Hg][Cl] (stereo not given),survivor count,"dose: 6.25 mg/kg/injection, schedule: Q01DX009 (ip), vehicle: Klucel (hydroxypropylcellulose) (HPC)",4 of 6
same,survivor count,"dose: 9.3 mg/kg/injection, schedule: Q04DX003 (ip), vehicle: Klucel (hydroxypropylcellulose) (HPC)",5 of 6
CCSc1ccc2c(c1)N(CCCN1CCN(C)CC1)c1ccccc1S2,T/C,"dose: 50.0 mg/kg/injection, schedule: Q04DX003 (ip), vehicle: saline",135 % of control
same,T/C,[4],130 % of control
same,survivor count,[2],0 of 8
same,survivor count,[5],1 of 6
same,survivor count,[3],0 of 8
same,survivor count,[6],0 of 6
C[NH-].C[NH-].[Br][Pt+2][Br],T/C,"dose: 3.0 mg/kg/injection, schedule: Q04DX003 (ip), vehicle: other",145 % of control
same,survivor count,"dose: 25.0 mg/kg/injection, schedule: Q04DX003 (ip), vehicle: other",6 of 6
same,survivor count,"dose: 50.0 mg/kg/injection, schedule: Q04DX003 (ip), vehicle: other",5 of 6
Cc1cc(C(=O)c2ccccn2)c2cccc(C(F)(F)F)c2n1,survivor count,[7],6 of 6
same,survivor count,[8],6 of 6
same,survivor count,[2],6 of 6
same,survivor count,[9],5 of 6
Nc1ncnc2c1ncn2C1OC(CO)C(O)C1O (stereo not given),T/C,"dose: 22.0 mg/kg/injection, schedule: Q01DX009 (ip), vehicle: saline",125 % of control
same,survivor count,"dose: 33.0 mg/kg/injection, schedule: Q01DX009 (ip), vehicle: saline",2 of 6
same,survivor count,"dose: 34.0 mg/kg/injection, schedule: Q01DX009 (ip), vehicle: saline",2 of 6
same,T/C,"dose: 44.0 mg/kg/injection, schedule: Q01DX009 (ip), vehicle: saline with Tween-80",131 % of control
same,survivor count,[10],1 of 6 and 2 of 6
same,T/C,"dose: 67.0 mg/kg/injection, schedule: Q01DX009 (ip), vehicle: saline with Tween-80",140 % of control
same,survivor count,"dose: 75.0 mg/kg/injection, schedule: Q01DX009 (ip), vehicle: saline",0 of 6 and 1 of 6
same,T/C,"dose: 80.0 mg/kg/injection, schedule: Q01DX009 (ip), vehicle: saline with Tween-80",126 and 127 % of control
same,T/C,[2],141 % of control
same,T/C,[3],"136, 137, 164, 181 % of control"
same,T/C,"dose: 264.0 mg/kg/injection, schedule: Q04DX003 (ip), vehicle: saline",136 % of control
same,T/C,[11],127 % of control
same,T/C,[9],"136, 142, 172, 175, 186, 190 % of control"
same,T/C,"dose: 400.0 mg/kg/injection, schedule: Q04DX003 (ip), vehicle: saline",145 % of control
same,T/C,"dose: 600.0 mg/kg/injection, schedule: Q01DX001 (ip), vehicle: saline with Tween-80",125 % of control
same,T/C,"dose: 600.0 mg/kg/injection, schedule: Q01DX009 (ip), vehicle: saline with Tween-80","141, 154, 175, 197, 209, 229 % of control"
same,T/C,"dose: 600.0 mg/kg/injection, schedule: Q04DX003 (ip), vehicle: saline",145 % of control
C=C1C(=O)[C@]23C[C@H]1CC[C@H]2[C@@]12CO[C@@H](O)[C@@H]1C(C)(C)[C@@H](O)C[C@@H]2OC3=O,T/C,"dose: 6.25 mg/kg/injection, schedule: Q01DX009 (ip), vehicle: saline with Tween-80",135 % of control
same,T/C,[12],125 and 132 % of control
same,T/C,[7],131 [5 of 6 alive] and 137 % of control
CC(C)CCCC(C)C1CCC2C3CC=C4CC([Se][As](C)C)CCC4(C)C3CCC12C (stereo not given),T/C,[3],129 % of control [5 of 6 alive]
Cc1cccc2nc(-c3ccccc3)ccc12,survivor count,"dose: 100.0 mg/kg/injection, schedule: Q01DX001 (ip), vehicle: saline",0 of 6
same,survivor count,"dose: 200.0 mg/kg/injection, schedule: Q01DX001 (ip), vehicle: saline",0 of 6
same,survivor count,"dose: 400.0 mg/kg/injection, schedule: Q01DX001 (ip), vehicle: saline",0 of 6
CCC(SC(CC(=O)O)C(=O)O)C(=O)O (stereo not given),survivor count,"dose: 100.0 mg/kg/injection, schedule: Q01DX001 (ip), vehicle: saline with Tween-80",2 of 6
same,survivor count,"dose: 200.0 mg/kg/injection, schedule: Q01DX001 (ip), vehicle: saline with Tween-80",2 of 6
same,survivor count,[11],0 of 6
O=S(c1ccccc1)c1c(Cl)c(Cl)nc(Cl)c1Cl (stereo not given),T/C,[12],131 % of control [5 of 6 alive]
same,T/C,[7],131 % of control [4 of 6 alive]
same,T/C,[8],142 % of control [5 of 6 alive]
same,survivor count,"dose: 100.0 mg/kg/injection, schedule: Q04DX003 (ip), vehicle: saline with Tween-80",1 of 6
S=C(NNC(=S)Nc1ccc(Cl)cc1)NNc1ccccc1,survivor count,"dose: 225.0 mg/kg/injection, schedule: Q01DX009 (ip), vehicle: Klucel (hydroxypropylcellulose) (HPC)",3 of 6
same,T/C,[13],130 % of control
same,survivor count,[13],3 of 6
Cc1ccc2c(/C=C/c3ccc(N(C)C)cc3)ccnc2c1C,T/C,[8],127 % of control
same,survivor count,[3],6 of 6
CCn1c(O)c(C=N)c(=O)n(CC)c1=O,survivor count,[5],5 of 6
CCC(=O)O[C@H]1CC[C@H]2[C@@H]3CCC4=CC(=O)C[C@]4(C)[C@H]3CC[C@]12C,survivor count,"dose: 400.0 mg/kg/injection, schedule: Q04DX003 (ip), vehicle: saline with Tween-80",4 of 6
O=C(Oc1cc(Cl)ccc1Cl)c1ccccc1,survivor count,[3],6 of 6
OCCN1CCN(CCCN2c3ccccc3Oc3ccc(C(F)(F)F)cc32)CC1,T/C,"dose: 25.0 mg/kg/injection, schedule: Q01DX009 (ip), vehicle: Klucel (hydroxypropylcellulose) (HPC)",144 % of control
same,T/C,[10],125 % of control
same,T/C,[4],125 % of control
same,survivor count,[14],3 of 10
same,survivor count,[5],3 of 8
same,survivor count,"dose: 200.0 mg/kg/injection, schedule: Q01DX009 (ip), vehicle: Klucel (hydroxypropylcellulose) (HPC)",0 of 10
same,survivor count,[6],0 of 8
CC(=O)O[C@]1(C(C)=O)CC[C@H]2[C@@H]3C[C@H](C)C4=CC(=O)CC[C@]4(C)[C@H]3CC[C@@]21C,survivor count,[14],6 of 6
same,survivor count,"dose: 400.0 mg/kg/injection, schedule: Q01DX009 (ip), vehicle: Klucel (hydroxypropylcellulose) (HPC)",8 of 10
same,survivor count,"dose: 800.0 mg/kg/injection, schedule: Q01DX009 (ip), vehicle: Klucel (hydroxypropylcellulose) (HPC)",9 of 10

# From PubChem BioAssay AID328 (DTP/NCI, 2004)
